The target of this assay is GEMIN5-eGFP (human) (UniProt Q8TEQ6). Nature of the assay: affinity purification with mass spectrometry.

Amino acid sequences for entries named in this document (tags omitted). Residues count along the entry.
UniProt Q8TEQ6: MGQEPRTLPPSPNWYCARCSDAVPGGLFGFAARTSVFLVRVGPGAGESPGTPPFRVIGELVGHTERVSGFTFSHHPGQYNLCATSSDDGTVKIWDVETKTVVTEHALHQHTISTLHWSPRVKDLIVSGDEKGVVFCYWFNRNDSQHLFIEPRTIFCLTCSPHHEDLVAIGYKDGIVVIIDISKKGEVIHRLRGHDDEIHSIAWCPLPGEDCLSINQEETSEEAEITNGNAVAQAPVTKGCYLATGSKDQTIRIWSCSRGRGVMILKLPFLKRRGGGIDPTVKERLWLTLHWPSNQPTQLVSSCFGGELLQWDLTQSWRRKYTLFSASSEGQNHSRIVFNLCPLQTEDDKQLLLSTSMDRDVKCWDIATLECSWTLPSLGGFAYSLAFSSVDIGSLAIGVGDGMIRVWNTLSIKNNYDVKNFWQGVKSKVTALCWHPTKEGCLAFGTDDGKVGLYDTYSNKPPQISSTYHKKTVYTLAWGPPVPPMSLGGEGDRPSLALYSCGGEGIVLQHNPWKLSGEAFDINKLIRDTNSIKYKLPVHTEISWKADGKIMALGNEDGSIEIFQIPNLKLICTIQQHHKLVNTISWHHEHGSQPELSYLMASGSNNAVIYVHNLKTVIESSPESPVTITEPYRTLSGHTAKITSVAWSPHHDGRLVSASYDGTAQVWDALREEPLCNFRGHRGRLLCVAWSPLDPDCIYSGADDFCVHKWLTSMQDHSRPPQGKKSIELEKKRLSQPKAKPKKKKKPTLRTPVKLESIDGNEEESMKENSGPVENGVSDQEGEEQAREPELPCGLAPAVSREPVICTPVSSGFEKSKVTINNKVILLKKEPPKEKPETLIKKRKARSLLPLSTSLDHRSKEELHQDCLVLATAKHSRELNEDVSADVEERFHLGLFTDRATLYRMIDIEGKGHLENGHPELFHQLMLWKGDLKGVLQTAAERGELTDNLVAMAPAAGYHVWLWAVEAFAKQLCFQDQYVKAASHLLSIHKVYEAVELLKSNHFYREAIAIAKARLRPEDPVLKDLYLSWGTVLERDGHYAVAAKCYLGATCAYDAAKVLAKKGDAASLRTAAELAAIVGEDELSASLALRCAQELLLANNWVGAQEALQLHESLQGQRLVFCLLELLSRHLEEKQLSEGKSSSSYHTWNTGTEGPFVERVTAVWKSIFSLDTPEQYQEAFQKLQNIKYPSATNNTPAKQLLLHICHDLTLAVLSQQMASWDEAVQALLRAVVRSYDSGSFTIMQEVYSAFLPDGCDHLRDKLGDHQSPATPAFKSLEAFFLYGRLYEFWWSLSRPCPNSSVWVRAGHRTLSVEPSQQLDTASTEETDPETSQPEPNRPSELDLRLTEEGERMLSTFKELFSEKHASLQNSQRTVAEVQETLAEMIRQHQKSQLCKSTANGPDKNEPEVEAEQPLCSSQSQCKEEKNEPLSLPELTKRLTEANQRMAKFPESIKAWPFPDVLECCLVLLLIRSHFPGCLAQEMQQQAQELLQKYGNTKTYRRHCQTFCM
UniProt P03316, residues 1-264: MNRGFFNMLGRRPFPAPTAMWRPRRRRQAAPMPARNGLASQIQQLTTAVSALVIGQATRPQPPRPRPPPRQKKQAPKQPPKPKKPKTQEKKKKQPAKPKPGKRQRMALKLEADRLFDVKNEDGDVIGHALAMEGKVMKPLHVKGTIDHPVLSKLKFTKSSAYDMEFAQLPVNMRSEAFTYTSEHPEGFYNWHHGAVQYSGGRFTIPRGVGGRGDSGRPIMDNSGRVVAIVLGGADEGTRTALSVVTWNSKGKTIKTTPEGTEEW

Results are given in words; binding and its absence hold for the method and conditions named. Binding seen in cells or lysates may run through a third protein. These calls come from enrichment with a bait or labelling near it, and not all partners need be listed.

SINV capsid (from UniProt P03316): the binding entry is on record as “binds”.

The values are drawn from paper PMC6458987.
